# Results are given in words; binding and its absence hold for the method and conditions named. Binding seen in cells or lysates may run through a third protein. Some results given as binding are weak or reduced against the parent protein; the word gives no strength. Tags and fused reporters may be left off the sequences shown.
# B1: Calmodulin kinase-like vesicle-associated-Myc-DDK (protein, UniProt Q3UHL1 1-512)
# chain: MPFGCVTLGDKKNYNQPSEVTDRYDLGQVIKTEEFCEIFRAKDKTTGKLHTCKKFQKRDGRKVRKAAKNEIGILKMVKHPNILQLVDVFVTRKEYFIFLELATGREVFDWILDQGYYSERDTSNVVRQVLEAVAYLHSLKIVHRNLKLENLVYYNRLKNSKIVISDFHLAKLENGLIKEPCGTPEYLAPEVVGRQRYGRPVDCWAIGVIMYILLSGNPPFYEEVEEDDYENHDKNLFRKILAGDYEFDSPYWDDISQAAKDLVTRLMEVEQDQRITAEEAISHEWISGNAASDKNIKDGVCAQIEKNFARAKWKKAVRVTTLMKRLRAPEQSGTAATQSASDAATPGAAGGAIAAAAAAAAAGGAASASGASATAATEGGAGCAAKSDDIASADRSATPATDGSATPATDGSVTPATDGSITPATDGSVTPATDRSATPATDGRATPATEESTVPATQSSALPAAKAAATPEPAVAQPDSTALEGATGQAPPSSKGEEATGCAQESQRVETS
# modifications: palmitoylation of Cys5 (approximately 7% of input palmitoylated in HeLa cells)
# B2: wild-type CaMKv-EGFP (protein, UniProt Q3UHL1 1-512)
# chain: MPFGCVTLGDKKNYNQPSEVTDRYDLGQVIKTEEFCEIFRAKDKTTGKLHTCKKFQKRDGRKVRKAAKNEIGILKMVKHPNILQLVDVFVTRKEYFIFLELATGREVFDWILDQGYYSERDTSNVVRQVLEAVAYLHSLKIVHRNLKLENLVYYNRLKNSKIVISDFHLAKLENGLIKEPCGTPEYLAPEVVGRQRYGRPVDCWAIGVIMYILLSGNPPFYEEVEEDDYENHDKNLFRKILAGDYEFDSPYWDDISQAAKDLVTRLMEVEQDQRITAEEAISHEWISGNAASDKNIKDGVCAQIEKNFARAKWKKAVRVTTLMKRLRAPEQSGTAATQSASDAATPGAAGGAIAAAAAAAAAGGAASASGASATAATEGGAGCAAKSDDIASADRSATPATDGSATPATDGSVTPATDGSITPATDGSVTPATDRSATPATDGRATPATEESTVPATQSSALPAAKAAATPEPAVAQPDSTALEGATGQAPPSSKGEEATGCAQESQRVETS
# B3: C5S-CaMKv-EGFP (protein, UniProt Q3UHL1 1-512)
# chain: MPFGSVTLGDKKNYNQPSEVTDRYDLGQVIKTEEFCEIFRAKDKTTGKLHTCKKFQKRDGRKVRKAAKNEIGILKMVKHPNILQLVDVFVTRKEYFIFLELATGREVFDWILDQGYYSERDTSNVVRQVLEAVAYLHSLKIVHRNLKLENLVYYNRLKNSKIVISDFHLAKLENGLIKEPCGTPEYLAPEVVGRQRYGRPVDCWAIGVIMYILLSGNPPFYEEVEEDDYENHDKNLFRKILAGDYEFDSPYWDDISQAAKDLVTRLMEVEQDQRITAEEAISHEWISGNAASDKNIKDGVCAQIEKNFARAKWKKAVRVTTLMKRLRAPEQSGTAATQSASDAATPGAAGGAIAAAAAAAAAGGAASASGASATAATEGGAGCAAKSDDIASADRSATPATDGSATPATDGSVTPATDGSITPATDGSVTPATDRSATPATDGRATPATEESTVPATQSSALPAAKAAATPEPAVAQPDSTALEGATGQAPPSSKGEEATGCAQESQRVETS
# Legend:
# [1] = biological target: T1, glutathione-S-transferase-labeled Arc (UniProt Q9WV31); assay: pull-down; GST-Arc or GST alone (10 μM) bound to glutathione resin, incubated overnight with HeLa cell lysate expressing CaMKv-Myc-DDK; eluted with glutathione; blots with anti-DDK and anti-GST; only the target purified
# T1 sequence: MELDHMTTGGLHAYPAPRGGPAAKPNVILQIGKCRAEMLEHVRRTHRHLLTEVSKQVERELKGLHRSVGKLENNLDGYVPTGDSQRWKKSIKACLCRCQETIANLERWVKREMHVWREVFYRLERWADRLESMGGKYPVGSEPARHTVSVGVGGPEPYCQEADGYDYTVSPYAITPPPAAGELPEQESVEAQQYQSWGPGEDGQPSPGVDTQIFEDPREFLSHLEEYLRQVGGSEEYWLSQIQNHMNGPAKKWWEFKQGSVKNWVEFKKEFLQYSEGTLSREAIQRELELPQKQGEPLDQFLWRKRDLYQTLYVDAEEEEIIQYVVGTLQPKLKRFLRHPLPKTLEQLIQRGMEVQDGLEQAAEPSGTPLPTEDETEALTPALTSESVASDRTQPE
# Arc-mCherry = biological target: T2, Arc-mCherry (UniProt Q9WV31); assay: FRET or BRET; FLIM-FRET in living MCF-10A cells at room temperature, 20-24 h after transfection; donor CaMKv-EGFP (two-photon excitation at 880 nm), acceptor Arc-mCherry; phasor plots of donor lifetime
# T2 sequence: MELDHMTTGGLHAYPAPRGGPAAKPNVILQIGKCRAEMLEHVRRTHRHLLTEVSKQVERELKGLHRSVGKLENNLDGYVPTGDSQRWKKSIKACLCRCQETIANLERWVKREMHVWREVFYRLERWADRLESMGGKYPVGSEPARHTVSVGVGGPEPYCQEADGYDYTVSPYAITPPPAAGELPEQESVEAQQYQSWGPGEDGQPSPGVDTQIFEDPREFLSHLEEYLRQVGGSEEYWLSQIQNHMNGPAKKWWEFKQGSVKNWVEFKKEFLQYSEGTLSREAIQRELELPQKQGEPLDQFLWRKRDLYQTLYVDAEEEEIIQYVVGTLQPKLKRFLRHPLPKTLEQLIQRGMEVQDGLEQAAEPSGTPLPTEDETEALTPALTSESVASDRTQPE
Binder,binding [1],binding (Arc-mCherry)
B1,binds,–
B2,–,binds
B3,–,binds
